These are yes or no findings as the source states them, for the method shown. Binding seen in cells or lysates may run through a third protein. Some entries that bind do so weakly or less than the wild type.

Results on 1 molecule are retold here after PMC8038999.

This experiment deals with T1, LecA-biotin (biotinylated Pseudomonas aeruginosa lectin LecA) (Pseudomonas aeruginosa) (UniProt Q05097).
T1 sequence (chain, biotin (NHS-ester conjugation; sites not stated)): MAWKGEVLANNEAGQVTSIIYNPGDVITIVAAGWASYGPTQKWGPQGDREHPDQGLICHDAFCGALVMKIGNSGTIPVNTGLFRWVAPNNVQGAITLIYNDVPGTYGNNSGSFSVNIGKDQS
Kind of experiment: pull-down; H1299 cells treated with 100 nM LecA-biotin for indicated times, lysed (25 mM Tris/HCl pH 7.4, 150 mM NaCl, 1 mM EDTA, 1% NP40, 5% glycerol), magnetic streptavidin beads 3 h at 4 °C, eluates immunoblotted; only the target purified. For orientation: A western blot detects proteins with antibodies after separation by electrophoresis.

B1: flotillin-2 (protein, UniProt Q14254 1-428)
chain: MGNCHTVGPNEALVVSGGCCGSDYKQYVFGGWAWAWWCISDTQRISLEIMTLQPRCEDVETAEGVALTVTGVAQVKIMTEKELLAVACEQFLGKNVQDIKNVVLQTLEGHLRSILGTLTVEQIYQDRDQFAKLVREVAAPDVGRMGIEILSFTIKDVYDKVDYLSSLGKTQTAVVQRDADIGVAEAERDAGIREAECKKEMLDVKFMADTKIADSKRAFELQKSAFSEEVNIKTAEAQLAYELQGAREQQKIRQEEIEIEVVQRKKQIAVEAQEILRTDKELIATVRRPAEAEAHRIQQIAEGEKVKQVLLAQAEAEKIRKIGEAEAAVIEAMGKAEAERMKLKAEAYQKYGDAAKMALVLEALPQIAAKIAAPLTKVDEIVVLSGDNSKVTSEVNRLLAELPASVHALTGVDLSKIPLIKKATGVQV
For B1, the binding entry is “binds”.
